For one compound, Number of subjects results are on record in US20240390369A1, “METHODS FOR DETERMINING RESPONSIVENESS TO TYK2 INHIBITORS” (Bristol-Myers Squibb Company, priority 2021, published 2024).

Further values from the same series stand in other lists.

The test system of the assay is patients with psoriatic arthritis. Put plainly: Phase 2 trial in psoriatic arthritis: ACR20 response at week 16. Format: in vivo, human. The conditions noted are these: 12 mg QD. The procedure: In a double-blind Phase 2 trial, 203 patients with psoriatic arthritis were randomized into three groups: deucravacitinib 6 mg once daily (N=70), deucravacitinib 12 mg once daily (N=67), or placebo (N=66). All subjects had active psoriatic arthritis according to the Classification Criteria for Psoriatic Arthritis (CASPAR); for active disease, these criteria required ≥3 tender joint count, ≥3 swollen joint count, and a C-reactive protein level above 3 mg/L. Other inclusion criteria included the following: presence of at least one plaque psoriasis lesion, and prior treatment failure with a non-biologic disease modifying anti-rheumatic drug, a non-steroidal anti-inflammatory drug, or a steroid. With respect to treatment history, approximately 70% of subjects had not received prior treatment with a biologic and were biologic naïve, while up to 30% of subjects had failed or had been intolerant to one TNF-inhibitor (TNF=Tumor necrosis factor, also known as TNFα). Randomization was stratified by prior TNF-inhibitor use (experienced/naïve) and body weight (<90 kg and ≥90 kg).
Clinical measures included the Psoriasis […] (PASI) score for skin psoriasis, American College of Rheumatology 20 (ACR20) response, Psoriatic Arthritis Disease Activity Score (PASDAS), Health Assessment Questionnaire-Disability Index (HAQ-DI), and Disease Activity Score 28 CRP (DAS28). To evaluate the predictive value of different protein measurements for the clinical response to deucravacitinib, baseline protein concentrations for responders and non-responders, as defined by ACR20 or PASI75 at week 16, were compared for each arm (placebo, 6 mg deucravacitinib once-daily, and 12 mg deucravacitinib once-daily).
Boxplots for baseline protein level by response were generated with a horizontal line indicating the median protein level at baseline. For each treatment arm, a two-sample t-test was performed to test whether mean baseline serum protein level was different in responders versus non-responders. […]

With `[2H]C([2H])([2H])NC(=O)c1nnc(NC(=O)C2CC2)cc1Nc1cccc(-c2ncn(C)n2)c1OC` [deucravacitinib, 6-(cyclopropanecarboxamido)-4-((2-methoxy-3-(1-methyl-1H-1,2,4-triazol-3-yl)phenyl)amino)-N-(methyl-d3)pyridazine-3-carboxamide], the Number of subjects is, setting by setting: (ACR20 non-responder at week 16, above median baseline IL-17A level) 10; (ACR20 responder at week 16, above median baseline IL-17A level) 21; (ACR20 responder at week 16, below median baseline IL-17A level) 20.
